# From article PMC7819943, “Rice protein-binding microarrays: a tool to detect cis-acting elements near promoter regions in rice”
# Amino acid sequences for entries named in this document (tags omitted).
# UniProt Q0JBA9, entry or part of it: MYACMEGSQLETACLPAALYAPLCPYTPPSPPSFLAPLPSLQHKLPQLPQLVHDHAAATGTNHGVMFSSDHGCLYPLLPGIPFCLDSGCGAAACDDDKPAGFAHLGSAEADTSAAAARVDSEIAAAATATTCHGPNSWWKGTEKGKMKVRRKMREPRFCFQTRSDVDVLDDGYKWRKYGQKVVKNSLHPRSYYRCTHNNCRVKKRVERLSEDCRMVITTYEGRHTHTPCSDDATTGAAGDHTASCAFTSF
# The other results are listed elsewhere or left out.
# Target: OsWRKY34 (Oryza sativa, UniProt Q0JBA9 1-250)
# Experiment: protein-binding microarray (RPBM); PBS, 2% BSA, 51.3 ng/ul salmon testes DNA, 50 uM zinc acetate, 200 nM TF, 25 C, 1 h; high values mean tight binding
# Details: protein: recombinant; tags: N-terminal polyhistidine and DsRed monomer fusion (pET32a); label: CyDye5-dUTP incorporated in the synthesized complementary strand; 3' TTTTT single-stranded linker to array surface; dsDNA, one strand shown
# Summary of the method: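 Using Ni–NTA, transcription factors fused N-terminally to polyhistidine and DsRed were purified after expression in E. coli BL21-CodonPlus. These were incubated at 200 nM with a blocked, double-stranded custom Agilent array for 1 h at 25 °C in a buffer containing 50 µM zinc acetate, and the array was washed. The binding signal is per-feature fluorescence intensity (arbitrary units) on an Axon 4000B scanner.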
row,Sequence,binding signal
1,ACAGTCCCTCGCGTTGTCGCTGTCCGCCAGAGCGCCAGACCGGAGTCACCTAGTGCAG,10800 fluorescence intensity (a.u.)
2,TAATGTATGACGCCGTTGACTTTTTAACTAACGTTTGACCCGGAGTCACCTAGTGCAG,28700 fluorescence intensity (a.u.)
3,CCTGCCACCTCTCCCTCTCTCGCCCGCGCAGTCCACGCACCGGAGTCACCTAGTGCAG,9210 fluorescence intensity (a.u.)
4,TCTTTCAATTCTTCTCTTGTATGGATGGTTTGGTTTGTTGCGGAGTCACCTAGTGCAG,9620 fluorescence intensity (a.u.)
5,TTTCCGTTTCTGAAACAGTGCCATTGACAGGTGGGCCCACCGGAGTCACCTAGTGCAG,8950 fluorescence intensity (a.u.)
6,TTTTGCTTTACACTTTATTTGCTTGCATCTTCATTTTTTTCGGAGTCACCTAGTGCAG,10600 fluorescence intensity (a.u.)
7,CGCTGAGTACGGTGGTTGTACTCAGTCTTGCTCTATTTTTCGGAGTCACCTAGTGCAG,8410 fluorescence intensity (a.u.)
8,CACACCACAAGCGCACGACACACGTCACACACAAACCAACCGGAGTCACCTAGTGCAG,8960 fluorescence intensity (a.u.)
9,AACTCCTACTCTACTGTACTCACAGTTGCACGGCTCAGAACGGAGTCACCTAGTGCAG,9340 fluorescence intensity (a.u.)
10,TGGGTCCCACCTGTCATCGTCACTCCTCATTTCCTCCTCTCGGAGTCACCTAGTGCAG,9670 fluorescence intensity (a.u.)
11,TTGTAGTAGTGAGGGATGCATTTGGTCAATTGATTTACACCGGAGTCACCTAGTGCAG,9020 fluorescence intensity (a.u.)
12,AACCATCCATTGCATGCTTGCTTCCATCTGATCTTCTTCTCGGAGTCACCTAGTGCAG,8970 fluorescence intensity (a.u.)
13,CAAAACCTACTCTTTTTTTTTTTTTTGCGTCGAGTTTTCACGGAGTCACCTAGTGCAG,12600 fluorescence intensity (a.u.)
14,ACTCATTTATCTTTTTTTTCTGTTTTTCTTCTTGTAGCAACGGAGTCACCTAGTGCAG,10400 fluorescence intensity (a.u.)
15,ATGTGGATTTGGGGTTCAATTTGACGATATGCATACCACTCGGAGTCACCTAGTGCAG,8390 fluorescence intensity (a.u.)
16,TTCCTTGCATTGGTGGTTGGTAGGATAGATAATTGAGTATCGGAGTCACCTAGTGCAG,8060 fluorescence intensity (a.u.)
17,TAGATTCTCTTTCTATTTTCTTTCCACTTAGCTTAGATATCGGAGTCACCTAGTGCAG,9100 fluorescence intensity (a.u.)
18,ACTAGTCATTTCGTCATGCTACATATGCTACCCTGATGCTCGGAGTCACCTAGTGCAG,8180 fluorescence intensity (a.u.)
19,ATAATAAGCCACTTCTTTCTTATGTGTTTCAATTCTCTTGCGGAGTCACCTAGTGCAG,8600 fluorescence intensity (a.u.)
20,CCACCGCCGCCGCCGCCCACCCGTGCCCGCGCTCCACCAGCGGAGTCACCTAGTGCAG,11100 fluorescence intensity (a.u.)
21,CCTTTATTTTTTCTGTCTATCTCTCTCTCTCTTTTCTTTTCGGAGTCACCTAGTGCAG,12100 fluorescence intensity (a.u.)

row,Sequence,binding signal
1,GAATCACTTCCTACTCAACCTATTATCTACTCCTTCTAGCCGGAGTCACCTAGTGCAG,10600 fluorescence intensity (a.u.)
2,ATTTTCACTGTCTCATATCAAATATTTGGATACATGTATACGGAGTCACCTAGTGCAG,8510 fluorescence intensity (a.u.)
3,CGTCTGGCCCTCATTTGGTCCTGTTATTTTGGTAAAGCCCCGGAGTCACCTAGTGCAG,9060 fluorescence intensity (a.u.)
4,CAAAATTAACTTGCGCGCCACTCTGCCTCTCAACCCTTCACGGAGTCACCTAGTGCAG,9350 fluorescence intensity (a.u.)
5,CCATTTTGACTTCGCAATTATGTGCATTAATTAATCTCTTCGGAGTCACCTAGTGCAG,8470 fluorescence intensity (a.u.)
6,TGCCACGTTCCCGTGTCGTTTTGCTCCTCACCCGCGATCTCGGAGTCACCTAGTGCAG,8960 fluorescence intensity (a.u.)
7,TGAATGGATTTGTCTCTGGCCTCCGGGTACATCTGAACATCGGAGTCACCTAGTGCAG,8610 fluorescence intensity (a.u.)
8,CTTCGTTTCGGTTGGGTTGACTGATGCGCCTATGGTTTTGCGGAGTCACCTAGTGCAG,9830 fluorescence intensity (a.u.)
9,AATTTCTACTGTCATGCTTCCTTGTCCCATTACTACATTGCGGAGTCACCTAGTGCAG,8450 fluorescence intensity (a.u.)
10,ACGTTTTTTATAGGTGAGGGTGGGAGGTGTTTTATATATACGGAGTCACCTAGTGCAG,16300 fluorescence intensity (a.u.)
11,GGATATATTTTTCACCCTCAGTGATATTCTCTCTTTTTTACGGAGTCACCTAGTGCAG,8150 fluorescence intensity (a.u.)
12,ATATATATATATATATATATATATATATATATGTATGTATCGGAGTCACCTAGTGCAG,10100 fluorescence intensity (a.u.)
13,GATACCCTCGGCGGAGGAAAACGTTGGGTTGGGTCAATCACGGAGTCACCTAGTGCAG,11300 fluorescence intensity (a.u.)
14,GTCGCGCCGCGCGCGGTTCCCTTTCACCCGCTCGGTCCAACGGAGTCACCTAGTGCAG,8640 fluorescence intensity (a.u.)
15,CGCACACCCAATGGATTCCTCATCTCGTGACCTCGCGCCACGGAGTCACCTAGTGCAG,10200 fluorescence intensity (a.u.)
16,GAGCATTTGGTGATCACATCCTCCTGCAAATGGGTTGATTCGGAGTCACCTAGTGCAG,8290 fluorescence intensity (a.u.)
17,GGTGGTGGTGGCCTCTTCTTCCTCCTCCGCGGCCGGGGACCGGAGTCACCTAGTGCAG,15600 fluorescence intensity (a.u.)
18,ACCTTTTTTCCGACCTTCTTTGTCAGGCCAAATGCAAAGTCGGAGTCACCTAGTGCAG,8670 fluorescence intensity (a.u.)
19,CACACGACGTCCACCAACACCAAAGCCGCCGCTTGTTTTCCGGAGTCACCTAGTGCAG,9790 fluorescence intensity (a.u.)
20,TGCAATAGCCTGGTGTCGATTTTATGGTCTTGTCGCTCAACGGAGTCACCTAGTGCAG,8120 fluorescence intensity (a.u.)
21,ACCATACATACTCACGTACAATTTTCTCAGTTAGCCCTGTCGGAGTCACCTAGTGCAG,11300 fluorescence intensity (a.u.)

# Looked up above:
# binding signal, CCACCGCCGCCGCCGCCCACCCGTGCCCGCGCTCCACCAGCGGAGTCACCTAGTGCAG is entered as 11100 fluorescence intensity (a.u.)
# binding signal, ACTAGTCATTTCGTCATGCTACATATGCTACCCTGATGCTCGGAGTCACCTAGTGCAG is entered as 8180 fluorescence intensity (a.u.)
